Columns and labels:
GRK4 = GRK4 (Homo sapiens, UniProt P32298); conditions: 1 μM; Run 1, Run 2
EGFR = EGFR (Homo sapiens, UniProt P00533); assay: biochemical; conditions: read-out: % enzyme activity, 1 μM; Run 1, Run 2
MST3/STK24 = MST3/STK24 (Homo sapiens, UniProt Q9Y6E0); assay: biochemical; conditions: read-out: % enzyme activity, 1 μM; Run 1, Run 2
MARK2/PAR-1Ba = MARK2/PAR-1Ba (Homo sapiens, UniProt Q7KZI7); assay: biochemical; conditions: read-out: % enzyme activity, 1 μM; Run 1, Run 2
SBK1 = SBK1 (Homo sapiens, UniProt Q52WX2); assay: biochemical; conditions: read-out: % enzyme activity, 1 μM; Run 1, Run 2
COT1/MAP3K8 = COT1/MAP3K8 (Homo sapiens, UniProt P41279); conditions: 1 μM; Run 1, Run 2
BRSK1 = BRSK1 (Homo sapiens, UniProt Q8TDC3); conditions: 1 μM; Run 1, Run 2
PAK3 = PAK3 (Homo sapiens, UniProt O75914); conditions: 1 μM; Run 1, Run 2
PKAcg = PKAcg (Homo sapiens, UniProt P22612); assay: biochemical; conditions: read-out: % enzyme activity, 1 μM; Run 1, Run 2
P38d/MAPK13 = P38d/MAPK13 (Homo sapiens, UniProt O15264); conditions: 1 μM; Run 1, Run 2
MYLK3 = MYLK3 (Homo sapiens, UniProt Q32MK0); assay: biochemical; conditions: read-out: % enzyme activity, 1 μM; Run 1, Run 2
MARK1 = MARK1 (Homo sapiens, UniProt Q9P0L2); conditions: 1 μM; Run 1, Run 2
AKT2 = AKT2 (Homo sapiens, UniProt P31751); assay: biochemical; conditions: read-out: % enzyme activity, 1 μM; Run 1, Run 2
TLK2 = TLK2 (Homo sapiens, UniProt Q86UE8); conditions: 1 μM; Run 1, Run 2

Amino acid sequences for entries named in this document (tags omitted). A change or cut given only in a name is not applied to a line headed by its entry.
UniProt P32298, whole entry: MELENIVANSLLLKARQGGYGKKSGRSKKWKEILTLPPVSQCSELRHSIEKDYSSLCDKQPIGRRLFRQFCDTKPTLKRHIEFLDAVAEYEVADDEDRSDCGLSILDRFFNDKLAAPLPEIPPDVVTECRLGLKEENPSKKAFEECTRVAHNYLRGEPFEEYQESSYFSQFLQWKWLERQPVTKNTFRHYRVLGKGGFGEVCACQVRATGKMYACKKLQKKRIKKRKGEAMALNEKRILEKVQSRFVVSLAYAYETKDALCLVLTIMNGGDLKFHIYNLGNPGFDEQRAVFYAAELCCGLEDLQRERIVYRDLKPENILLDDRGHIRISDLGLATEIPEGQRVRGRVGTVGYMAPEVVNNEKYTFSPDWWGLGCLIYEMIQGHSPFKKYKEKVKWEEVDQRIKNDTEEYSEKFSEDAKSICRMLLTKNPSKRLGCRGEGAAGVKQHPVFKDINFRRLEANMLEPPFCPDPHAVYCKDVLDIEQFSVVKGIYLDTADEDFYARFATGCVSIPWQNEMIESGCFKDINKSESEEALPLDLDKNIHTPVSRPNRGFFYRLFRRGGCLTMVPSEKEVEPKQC
UniProt Q7KZI7: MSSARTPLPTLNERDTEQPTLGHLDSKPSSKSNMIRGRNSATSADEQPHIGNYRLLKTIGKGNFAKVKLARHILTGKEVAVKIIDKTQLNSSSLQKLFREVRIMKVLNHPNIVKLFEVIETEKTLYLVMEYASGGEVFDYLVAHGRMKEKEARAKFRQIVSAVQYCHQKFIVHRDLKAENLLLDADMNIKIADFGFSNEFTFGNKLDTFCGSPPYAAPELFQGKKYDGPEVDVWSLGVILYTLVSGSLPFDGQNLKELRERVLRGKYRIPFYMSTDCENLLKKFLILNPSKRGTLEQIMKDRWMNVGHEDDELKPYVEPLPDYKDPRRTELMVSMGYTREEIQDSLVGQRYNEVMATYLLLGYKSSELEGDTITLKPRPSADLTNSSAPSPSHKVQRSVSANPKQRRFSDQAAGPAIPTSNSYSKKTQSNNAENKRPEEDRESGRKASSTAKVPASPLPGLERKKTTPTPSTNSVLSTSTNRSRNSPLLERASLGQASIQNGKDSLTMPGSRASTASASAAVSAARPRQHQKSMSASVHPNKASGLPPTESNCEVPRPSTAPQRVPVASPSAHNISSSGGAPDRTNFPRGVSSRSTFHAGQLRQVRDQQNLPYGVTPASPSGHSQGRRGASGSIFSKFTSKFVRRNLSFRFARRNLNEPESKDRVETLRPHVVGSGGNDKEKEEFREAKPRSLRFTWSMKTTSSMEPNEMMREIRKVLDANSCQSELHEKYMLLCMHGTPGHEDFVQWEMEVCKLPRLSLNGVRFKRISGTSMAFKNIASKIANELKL
UniProt Q52WX2: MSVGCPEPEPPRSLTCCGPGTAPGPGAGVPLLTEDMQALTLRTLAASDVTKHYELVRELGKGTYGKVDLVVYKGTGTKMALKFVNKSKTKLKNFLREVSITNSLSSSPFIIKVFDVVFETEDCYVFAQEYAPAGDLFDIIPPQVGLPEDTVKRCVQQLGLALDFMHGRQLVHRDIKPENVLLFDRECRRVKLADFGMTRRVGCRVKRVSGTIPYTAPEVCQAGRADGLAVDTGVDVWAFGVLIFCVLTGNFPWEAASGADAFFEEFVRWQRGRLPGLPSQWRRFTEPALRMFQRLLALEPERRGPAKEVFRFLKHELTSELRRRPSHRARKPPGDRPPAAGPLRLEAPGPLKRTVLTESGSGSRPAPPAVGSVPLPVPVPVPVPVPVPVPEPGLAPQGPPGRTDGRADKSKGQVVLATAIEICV
UniProt P41279, whole entry: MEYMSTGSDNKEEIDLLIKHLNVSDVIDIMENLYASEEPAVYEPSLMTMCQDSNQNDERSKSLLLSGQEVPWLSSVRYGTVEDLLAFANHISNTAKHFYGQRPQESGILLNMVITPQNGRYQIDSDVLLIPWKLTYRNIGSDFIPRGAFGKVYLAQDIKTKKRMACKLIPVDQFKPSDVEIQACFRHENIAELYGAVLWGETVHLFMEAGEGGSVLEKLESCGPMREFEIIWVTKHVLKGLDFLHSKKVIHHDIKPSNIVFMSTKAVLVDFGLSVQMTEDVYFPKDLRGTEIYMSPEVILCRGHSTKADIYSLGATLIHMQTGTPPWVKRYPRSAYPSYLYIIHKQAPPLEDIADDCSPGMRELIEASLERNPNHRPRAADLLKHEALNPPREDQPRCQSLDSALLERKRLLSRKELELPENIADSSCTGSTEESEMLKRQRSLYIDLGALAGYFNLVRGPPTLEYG
UniProt Q8TDC3: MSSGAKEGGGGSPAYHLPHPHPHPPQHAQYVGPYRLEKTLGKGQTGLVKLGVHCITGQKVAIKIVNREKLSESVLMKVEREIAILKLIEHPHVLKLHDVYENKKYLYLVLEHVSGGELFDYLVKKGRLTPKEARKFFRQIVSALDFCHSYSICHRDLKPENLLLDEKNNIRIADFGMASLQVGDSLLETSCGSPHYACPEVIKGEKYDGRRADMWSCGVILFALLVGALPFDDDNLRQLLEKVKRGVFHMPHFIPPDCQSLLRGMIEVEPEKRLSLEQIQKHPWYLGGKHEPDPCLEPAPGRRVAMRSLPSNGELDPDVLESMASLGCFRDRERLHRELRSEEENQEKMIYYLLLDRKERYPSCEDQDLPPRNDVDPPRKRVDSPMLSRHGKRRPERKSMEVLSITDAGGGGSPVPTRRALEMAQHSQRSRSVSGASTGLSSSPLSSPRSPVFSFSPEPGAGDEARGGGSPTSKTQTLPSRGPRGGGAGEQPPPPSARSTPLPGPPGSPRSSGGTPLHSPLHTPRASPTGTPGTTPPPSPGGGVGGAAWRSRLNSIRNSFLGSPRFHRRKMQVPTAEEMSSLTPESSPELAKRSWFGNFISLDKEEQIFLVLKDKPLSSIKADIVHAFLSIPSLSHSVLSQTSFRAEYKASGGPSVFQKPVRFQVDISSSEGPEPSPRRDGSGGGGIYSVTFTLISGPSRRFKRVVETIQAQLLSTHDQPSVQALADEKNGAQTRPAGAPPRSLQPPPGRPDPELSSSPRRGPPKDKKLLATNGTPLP
UniProt O75914, whole entry: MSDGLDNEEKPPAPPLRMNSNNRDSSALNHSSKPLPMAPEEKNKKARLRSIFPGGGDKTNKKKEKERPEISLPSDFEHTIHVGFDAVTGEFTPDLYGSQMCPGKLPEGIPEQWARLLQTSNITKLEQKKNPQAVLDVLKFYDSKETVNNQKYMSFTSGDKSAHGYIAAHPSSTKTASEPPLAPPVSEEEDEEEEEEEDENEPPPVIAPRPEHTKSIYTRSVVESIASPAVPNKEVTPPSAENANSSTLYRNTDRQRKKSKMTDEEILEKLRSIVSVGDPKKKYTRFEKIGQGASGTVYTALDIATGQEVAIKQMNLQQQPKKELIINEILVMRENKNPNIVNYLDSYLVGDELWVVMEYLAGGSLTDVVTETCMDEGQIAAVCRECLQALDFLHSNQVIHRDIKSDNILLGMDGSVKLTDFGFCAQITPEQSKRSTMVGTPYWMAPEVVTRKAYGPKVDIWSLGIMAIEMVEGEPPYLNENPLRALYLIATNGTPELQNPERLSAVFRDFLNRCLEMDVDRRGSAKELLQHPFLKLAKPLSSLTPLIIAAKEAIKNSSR
UniProt P22612, whole entry: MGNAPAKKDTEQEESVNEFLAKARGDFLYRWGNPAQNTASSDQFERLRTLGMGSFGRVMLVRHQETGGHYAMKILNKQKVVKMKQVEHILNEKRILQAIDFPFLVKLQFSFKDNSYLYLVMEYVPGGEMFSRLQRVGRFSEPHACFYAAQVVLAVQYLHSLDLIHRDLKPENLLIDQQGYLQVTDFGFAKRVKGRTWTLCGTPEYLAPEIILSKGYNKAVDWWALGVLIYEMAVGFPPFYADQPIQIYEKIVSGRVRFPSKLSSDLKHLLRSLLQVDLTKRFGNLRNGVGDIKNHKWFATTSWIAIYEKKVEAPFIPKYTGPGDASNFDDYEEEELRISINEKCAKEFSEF
UniProt O15264: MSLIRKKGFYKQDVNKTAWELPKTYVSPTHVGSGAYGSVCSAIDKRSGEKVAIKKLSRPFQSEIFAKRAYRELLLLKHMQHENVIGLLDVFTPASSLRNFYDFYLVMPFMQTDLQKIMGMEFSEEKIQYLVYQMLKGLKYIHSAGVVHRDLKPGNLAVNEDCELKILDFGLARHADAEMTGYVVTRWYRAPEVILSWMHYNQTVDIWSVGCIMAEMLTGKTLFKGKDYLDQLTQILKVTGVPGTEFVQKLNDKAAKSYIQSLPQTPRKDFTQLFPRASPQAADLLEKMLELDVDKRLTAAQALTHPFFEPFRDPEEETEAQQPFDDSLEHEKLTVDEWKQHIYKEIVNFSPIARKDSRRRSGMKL
UniProt Q9P0L2: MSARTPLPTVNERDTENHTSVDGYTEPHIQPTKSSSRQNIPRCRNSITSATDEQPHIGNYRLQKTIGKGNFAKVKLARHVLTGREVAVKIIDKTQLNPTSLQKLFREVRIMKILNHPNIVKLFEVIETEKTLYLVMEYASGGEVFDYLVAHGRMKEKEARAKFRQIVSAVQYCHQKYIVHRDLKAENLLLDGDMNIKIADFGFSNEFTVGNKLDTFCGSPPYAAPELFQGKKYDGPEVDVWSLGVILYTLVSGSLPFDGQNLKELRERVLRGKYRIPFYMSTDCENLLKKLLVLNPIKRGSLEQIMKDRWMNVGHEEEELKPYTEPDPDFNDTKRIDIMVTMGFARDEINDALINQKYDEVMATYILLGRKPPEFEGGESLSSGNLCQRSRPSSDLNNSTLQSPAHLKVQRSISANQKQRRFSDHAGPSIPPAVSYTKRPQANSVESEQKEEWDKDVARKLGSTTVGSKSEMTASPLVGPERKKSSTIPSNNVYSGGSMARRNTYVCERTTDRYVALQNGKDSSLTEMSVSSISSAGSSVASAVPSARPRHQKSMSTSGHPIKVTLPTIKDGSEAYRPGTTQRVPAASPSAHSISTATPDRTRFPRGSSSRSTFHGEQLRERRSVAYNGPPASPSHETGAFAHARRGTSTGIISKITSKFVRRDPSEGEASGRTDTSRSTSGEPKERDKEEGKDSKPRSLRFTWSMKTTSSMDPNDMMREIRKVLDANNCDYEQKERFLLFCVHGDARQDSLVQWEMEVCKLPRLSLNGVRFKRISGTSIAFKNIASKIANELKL
UniProt P31751: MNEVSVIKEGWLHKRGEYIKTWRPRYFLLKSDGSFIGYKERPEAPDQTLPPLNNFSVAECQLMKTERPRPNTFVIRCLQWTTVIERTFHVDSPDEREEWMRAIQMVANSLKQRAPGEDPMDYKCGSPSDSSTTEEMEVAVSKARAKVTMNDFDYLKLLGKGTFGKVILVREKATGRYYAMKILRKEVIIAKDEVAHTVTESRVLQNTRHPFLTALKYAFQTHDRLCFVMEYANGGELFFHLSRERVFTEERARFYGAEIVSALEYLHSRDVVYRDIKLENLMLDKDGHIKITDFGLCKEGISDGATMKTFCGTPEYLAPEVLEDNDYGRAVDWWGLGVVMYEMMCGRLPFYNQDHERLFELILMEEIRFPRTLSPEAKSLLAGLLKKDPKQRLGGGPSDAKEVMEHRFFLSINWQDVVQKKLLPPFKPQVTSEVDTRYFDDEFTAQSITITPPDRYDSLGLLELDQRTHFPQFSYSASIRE
UniProt Q86UE8, whole entry: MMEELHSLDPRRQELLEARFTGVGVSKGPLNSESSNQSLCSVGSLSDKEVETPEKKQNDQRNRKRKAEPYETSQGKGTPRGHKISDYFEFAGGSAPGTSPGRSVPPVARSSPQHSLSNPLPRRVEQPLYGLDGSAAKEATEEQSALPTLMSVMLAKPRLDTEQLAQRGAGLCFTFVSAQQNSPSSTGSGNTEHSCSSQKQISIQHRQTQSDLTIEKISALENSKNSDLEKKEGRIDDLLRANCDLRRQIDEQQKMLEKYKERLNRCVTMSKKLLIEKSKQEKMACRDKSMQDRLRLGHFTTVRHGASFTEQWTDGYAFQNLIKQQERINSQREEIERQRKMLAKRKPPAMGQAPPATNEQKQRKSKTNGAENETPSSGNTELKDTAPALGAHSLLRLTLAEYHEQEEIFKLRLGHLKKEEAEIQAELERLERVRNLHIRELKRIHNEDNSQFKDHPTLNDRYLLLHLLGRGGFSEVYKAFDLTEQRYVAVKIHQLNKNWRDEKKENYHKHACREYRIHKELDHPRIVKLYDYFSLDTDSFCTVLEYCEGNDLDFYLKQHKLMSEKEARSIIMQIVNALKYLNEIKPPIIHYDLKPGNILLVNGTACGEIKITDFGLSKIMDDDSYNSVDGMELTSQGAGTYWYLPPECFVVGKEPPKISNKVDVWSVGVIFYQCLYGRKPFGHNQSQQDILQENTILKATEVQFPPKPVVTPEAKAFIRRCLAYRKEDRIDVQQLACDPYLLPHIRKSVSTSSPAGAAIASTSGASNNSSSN

Compound: COc1cc(-c2cncc(-c3ccc(N4CCN(C(C)C)CC4)cc3)c2C)cc(F)c1C(N)=O [Compound 26b, 2-Fluoro-4-(5-(4-(4-isopropylpiperazin-1-yl)phenyl)-4-methylpyridin-3-yl)-6-methoxybenzamide]
- % enzyme activity (GRK4): 90.10%
- remaining activity at 1 µM (EGFR): 101%
- remaining activity at 1 µM (MST3/STK24): 113%
- remaining activity at 1 µM (MARK2/PAR-1Ba): 93.7%
- remaining activity at 1 µM (SBK1): 96.3%
- % enzyme activity (COT1/MAP3K8): 94.82%
- % enzyme activity (BRSK1): 84.48%
- % enzyme activity (PAK3): 89.47%
- remaining activity at 1 µM (PKAcg): 92%
- % enzyme activity (P38d/MAPK13): 101.10%
- remaining activity at 1 µM (MYLK3): 103%
- % enzyme activity (MARK1): 91.67%
- remaining activity at 1 µM (AKT2): 94%
- % enzyme activity (TLK2): 94.99%

Reference: paper PMC8213057, “Targeting ALK2: An Open Science Approach to Developing Therapeutics for the Treatment of Diffuse Intrinsic Pontine Glioma” (Journal of Medicinal Chemistry, 2020)
